{"source": "PubChem BioAssay AID1487", "about": "(National Center for Advancing Translational Sciences (NCATS), 2009)", "note": "The whole screen tested about 200,000 compounds, of which about 25 (0.01%) were called active. The shares of active, inactive and inconclusive entries below differ from those in the screen. Calls follow the shape of the dose curve; as a rule, active = well fitted inhibition curve with a large enough effect in the signal ratio, with a control signal flat (not every such curve was filed as active); inconclusive = small, poorly fitted or top-dose-only effect, or effect the other way, or a change in a side signal; inactive = flat fitted curve, though single readings scatter; the % refers to the signal ratio. Potencies of inconclusive entries are doubtful fits and often do not repeat. % is scaled to controls: 0 for no effect and ±100 for the full control effect; potency is read from the fitted curve at half-maximal effect.", "data": [{"assay": "qHTS Assay for Modulators of Lamin A Splicing", "details": "HeLa LMNA splicing GFP/RFP minigene ratio, 48 h; ratio change, negative = inhibition: at 46.1 µM (top of the series) unless noted", "in_short": "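S3 HeLa stable clones carrying a lamin A-EGFP splicing minigene plus DsRed2 were seeded at 600 cells/well in Opti-MEM with 2% FBS, pin-dosed and incubated 48 h at 37°C. Acumen cytometry (488 nm) gave the GFP/RFP total-intensity ratio.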", "values": [{"smiles": "O=C(CCS(=O)(=O)c1ccccc1)N(Cc1cccnc1)c1nc2ccc(Cl)cc2s1", "Potency": "inconclusive: 35.5 µM [cytotoxic, single point]"}, {"smiles": "COC(=O)C1=C(C)N(c2ccc(Cl)c(Cl)c2)C(=O)C1", "ratio change, negative = inhibition": "inconclusive: -27.6%"}, {"smiles": "COc1ccc2[nH]c3c(C)c4ccncc4c(C)c3c2c1", "ratio change, negative = inhibition": "inconclusive: 83.3% [at 46 µM]"}, {"smiles": "COc1cccc(NC(=O)CN(C)C(C)C(=O)Nc2ccc(S(=O)(=O)N3CCCC3)cc2)c1", "note": "(stereo not drawn)", "ratio change, negative = inhibition": "inactive"}, {"smiles": "CC(=O)Nc1ccc(-n2cc(-c3ccccc3)[nH]c2=S)cc1", "ratio change, negative = inhibition": "inconclusive: -10.1% [at 46 µM]"}, {"smiles": "Cc1cc(C)[n+](C)n1CC(O)Cn1c2ccccc2c2ccccc21", "note": "(stereo not drawn)", "ratio change, negative = inhibition": "inconclusive: -20.4% [at 46 µM]"}, {"smiles": "CC(C)c1ccc(NC(=O)NC2CCCCC2)cc1", "ratio change, negative = inhibition": "inconclusive: 5.4%"}, {"smiles": "Cc1ccc(-c2csc3nc4c5ccccc5c(NCCCN(C)C)nn4c(=O)c23)cc1", "ratio change, negative = inhibition": "inconclusive: 88.1% [at 46 µM]"}, {"smiles": "CN(C)c1ncnc2ccc(-c3cccc(C#N)c3)cc12", "ratio change, negative = inhibition": "inconclusive: -17.5%"}, {"smiles": "CN(C)S(=O)(=O)N1CCC(CCCC2CCN(S(=O)(=O)N(C)C)CC2)CC1", "ratio change, negative = inhibition": "inconclusive: -8.59%"}, {"smiles": "CCOc1ccc(N2C(=O)CC(NCC3CCCO3)C2=O)cc1", "note": "(stereo not drawn)", "ratio change, negative = inhibition": "inconclusive: 1.72% [at 46 µM]"}, {"smiles": "O=C(c1ccc(-c2cccc(Cl)c2Cl)o1)N1CCOCC1", "ratio change, negative = inhibition": "inactive"}, {"smiles": "Cc1sc(NC(=O)CCC(=O)O)c(C(N)=O)c1-c1ccccc1", "ratio change, negative = inhibition": "inconclusive: -12.2%"}, {"smiles": "O=C1OCCN1/N=C\\c1ccc([N+](=O)[O-])o1", "ratio change, negative = inhibition": "inconclusive: -26.1%"}, {"smiles": "CC(C)(C)OC(=O)N1CCC(c2c(C(=O)NCc3cccc(Cl)c3)cnn2-c2ccc(F)cc2)CC1", "ratio change, negative = inhibition": "inconclusive: -23.6% [at 46 µM]"}, {"smiles": "OCCNc1nc2ccccc2n1-c1ncnc2sc3c(c12)CCC3", "Potency": "inconclusive: 17.8 µM [falling, single point]"}, {"smiles": "O=C(CCCn1c(=O)c2cccn2c2ccccc21)Nc1cc(C(F)(F)F)ccc1Cl", "ratio change, negative = inhibition": "inactive"}, {"smiles": "Cn1cc(-c2cc3n(n2)CCC(=O)N3CCCC(=O)NCc2ccc(Cl)cc2)c2ccccc21", "ratio change, negative = inhibition": "inconclusive: -0.725% [at 46 µM]"}, {"smiles": "Cc1cc(C)n(C(C)CC(=O)Nc2cccc(C(F)(F)F)c2)n1", "note": "(stereo not drawn)", "ratio change, negative = inhibition": "inactive"}, {"smiles": "CCOC(=O)Cn1c(=O)n(CC2CCCO2)c2nc(-c3ccccc3OC)nc(C(N)=O)c21", "note": "(stereo not drawn)", "ratio change, negative = inhibition": "inconclusive: -3.57% [at 46 µM]"}, {"smiles": "O=Cc1ccc(N2CCCC2)c(F)c1", "ratio change, negative = inhibition": "inactive"}, {"smiles": "Cc1cccc2sc(N(Cc3cccnc3)C(=O)CCc3ccccc3)nc12", "ratio change, negative = inhibition": "inconclusive: -17.5% [at 46 µM]"}, {"smiles": "O=S(=O)(Nc1ccc2c3c(cccc13)CC2)c1ccc(F)cc1", "ratio change, negative = inhibition": "inconclusive: 11.3%"}, {"smiles": "CC1=C(Cl)C2=NS(=O)(=O)CCN2C=C1Cl", "ratio change, negative = inhibition": "inactive"}, {"smiles": "CCN(CC)S(=O)(=O)c1ccc(N2CCOCC2)c(NC(=O)c2cc([N+](=O)[O-])ccc2Cl)c1", "Potency": "inconclusive: 11.2 µM [inhibitor, partial curve]"}, {"smiles": "COc1ccc(Nc2nc3ccccc3nc2NS(=O)(=O)c2cccs2)cc1", "ratio change, negative = inhibition": "inactive: 8.79% [at 0.0737 µM]"}, {"smiles": "COc1ccc2[nH]cc(CCNC(C)=O)c2c1", "ratio change, negative = inhibition": "inactive"}, {"smiles": "C=CCc1cc(C=O)cc(OC)c1OCc1ccc(C(=O)O)cc1", "ratio change, negative = inhibition": "inactive"}, {"smiles": "COc1ccc(Cl)cc1C(=O)Nc1ccccc1N1CCN(C(=O)C(C)C)CC1", "Potency": "inconclusive: 28.2 µM [falling, single point]"}, {"smiles": "CCOc1ccc(CCNC(=O)C2CCN(C(=O)N3CC(CC)Oc4ccccc43)CC2)cc1", "note": "(stereo not drawn)", "ratio change, negative = inhibition": "inconclusive: -8.88% [at 46 µM]"}, {"smiles": "Cc1ccc(Oc2nc3c(c(=O)n(C)c(=O)n3C)n2C)cc1C", "ratio change, negative = inhibition": "inconclusive: 53.3% [at 46 µM]"}, {"smiles": "CCOCCCN(Cc1ccco1)S(=O)(=O)c1cc2c(cc1Cl)NC(=O)CO2", "ratio change, negative = inhibition": "inconclusive: 13.8% [at 46 µM]"}, {"smiles": "O=C(C[n+]1cc(-c2ccc(Cl)cc2)n2c1CCC2)N1c2ccccc2Sc2ccccc21", "ratio change, negative = inhibition": "inactive"}, {"smiles": "Cc1cccc(NC(=O)N2CCC(c3nc4ccccc4o3)CC2)c1", "ratio change, negative = inhibition": "inconclusive: -8.8%"}, {"smiles": "Cn1nnc2c(N3CCN(c4cccc(Cl)c4)CC3)ncnc21", "ratio change, negative = inhibition": "inactive"}, {"smiles": "CC1CN(C(=O)c2cc3cc([N+](=O)[O-])ccc3oc2=O)CC(C)O1", "note": "(stereo not drawn)", "ratio change, negative = inhibition": "inconclusive: -8.55% [at 46 µM]"}, {"smiles": "O=C(Nc1cccc(S(=O)(=O)C(F)F)c1)c1ccc(S(=O)(=O)N2CCCC2)cc1", "Potency": "inconclusive: 11.2 µM [inhibitor, single point]"}, {"smiles": "O=C(Nc1nc2ccc(S(=O)(=O)N3CCCC3)cc2s1)c1ccccn1", "Potency": "inconclusive: 35.5 µM [rising, partial curve, poor fit]"}, {"smiles": "CCN(CC)CCCNC(=O)CN1C(=O)CCn2nc(-c3cn(C)c4ccccc34)cc21", "ratio change, negative = inhibition": "inactive"}, {"smiles": "CCOC(=O)c1cnc(SCC(=O)Nc2sc(C)c(C)c2C#N)nc1N", "ratio change, negative = inhibition": "inactive"}, {"smiles": "CN1CCc2nc(SCc3ccc(C(C)(C)C)cc3)c(C#N)cc2C1", "ratio change, negative = inhibition": "inactive"}, {"smiles": "Cc1ccc(C(=O)c2cn(CC(=O)NC3CCCCC3)c3nc(C)ccc3c2=O)cc1", "ratio change, negative = inhibition": "inactive"}, {"smiles": "O=C(O)CCN1C(=O)C(=C2CCCCCC2)SC1=S", "ratio change, negative = inhibition": "inactive"}, {"smiles": "CC1(C)Cn2c(nnc2-c2ccccc2)S1", "ratio change, negative = inhibition": "inactive"}, {"smiles": "COCc1nc2ccccc2n1Cc1c(F)cccc1Cl", "ratio change, negative = inhibition": "inconclusive: 7.94% [at 46 µM]"}, {"smiles": "CSC1=C(C#N)C(c2cccc(Br)c2)CC(=O)N1", "note": "(stereo not drawn)", "ratio change, negative = inhibition": "inactive"}, {"smiles": "O=C(C1=C[C@@H]2[C@H]3C(=O)N(c4ccccc4Cl)C(=O)[C@H]3[C@@H](C(=O)c3ccc(Cl)cc3)N2C=C1)c1ccccc1", "ratio change, negative = inhibition": "inactive"}, {"smiles": "O=C(NNC(=O)c1ccccc1Cl)c1ccccc1Cl", "ratio change, negative = inhibition": "inconclusive: -1.11% [at 46 µM]"}, {"smiles": "CO[C@H]1C=CO[C@]2(C)Oc3c(C)c(O)c4c(O)c(c5c(c4c3C2=O)NC2(CCN(CC(C)C)CC2)N=5)=NC(=O)C(C)=CC=C[C@@H](C)[C@@H](O)[C@@H](C)[C@@H](O)[C@@H](C)[C@@H](OC(C)=O)[C@@H]1C", "ratio change, negative = inhibition": "inconclusive: -14.6%"}, {"smiles": "Cc1ccc(C(=O)C(NC(=O)c2ccco2)Nc2sc3c(c2C(N)=O)CCCC3)cc1", "note": "(stereo not drawn)", "ratio change, negative = inhibition": "inactive"}, {"smiles": "CN1CCOc2cc(S(=O)(=O)Nc3ccc(F)cc3)ccc21", "ratio change, negative = inhibition": "inconclusive: -32.5%"}, {"smiles": "COc1cccc2c1OCC/C2=N\\NC(=O)C(C)Oc1ccc([N+](=O)[O-])cc1", "note": "(stereo not drawn)", "ratio change, negative = inhibition": "inconclusive: 19.7% [at 46 µM]"}, {"smiles": "O=C(CCNC(=O)Cn1ccc2ccccc2c1=O)NCCC1=CCCCC1", "ratio change, negative = inhibition": "inconclusive: 32.6% [at 46 µM]"}, {"smiles": "Cc1ccc(-c2ccc(C(=O)NCc3ccccc3)o2)c2ccccc12", "ratio change, negative = inhibition": "inconclusive: -49.3%"}, {"smiles": "C/C(N)=C(/C#N)C(=O)COC(=O)CNS(=O)(=O)c1c(F)cccc1F", "ratio change, negative = inhibition": "inconclusive: 7.79% [at 46 µM]"}, {"smiles": "O=C(Cc1c(F)cccc1Cl)c1ccc(O)cc1O", "ratio change, negative = inhibition": "inconclusive: -15.8%"}, {"smiles": "CNCCC=C1c2ccccc2CCc2ccccc21", "ratio change, negative = inhibition": "inconclusive: -22.2%"}, {"smiles": "COc1ccc(C(=O)N2CCN(Cc3cc(=O)n4nc(-c5ccccc5C)sc4n3)CC2)cc1OC", "ratio change, negative = inhibition": "inconclusive: 5.24% [at 46 µM]"}, {"smiles": "O=C(O)Cn1nnc(-c2ccc(OCc3cccc(C(F)(F)F)c3)cc2)n1", "ratio change, negative = inhibition": "inactive"}, {"smiles": "O=C(NCCc1ccccc1)C(c1ccccc1)N(C(=O)c1csnn1)C1CC1", "note": "(stereo not drawn)", "ratio change, negative = inhibition": "inconclusive: 25.9% [at 46 µM]"}, {"smiles": "COc1ccc(N(CC(=O)N2CCc3ccccc32)S(=O)(=O)c2c(C)noc2C)cc1", "ratio change, negative = inhibition": "inconclusive: -23.7%"}, {"smiles": "CCOC(=O)CNC(=O)CSc1nnc(NC(=O)c2ccc(C)cc2)s1", "ratio change, negative = inhibition": "inactive: 1.49% [at 9.22 µM]"}, {"smiles": "CC(C)c1ccccc1NC(=O)COC(=O)CCN1C(=O)/C(=C\\C=C\\c2ccccc2)SC1=S", "ratio change, negative = inhibition": "inconclusive: -18.1%"}, {"smiles": "Fc1ccc(NC(=S)Nc2ccc(Br)cc2)cc1", "Potency": "inconclusive: 35.5 µM [fluorescent, single point]"}, {"smiles": "CCOC(=O)N1CCN(CCC(=O)Nc2ccc(Br)cc2)CC1", "Potency": "inconclusive: 35.5 µM [falling, single point]"}, {"smiles": "COC(=O)CSc1nc(-c2ccccc2)cc(-c2ccco2)c1C#N", "ratio change, negative = inhibition": "inconclusive: 8.85%"}, {"smiles": "Cc1ccc(-n2nnnc2SCC(=O)NC(=O)Nc2ccc3c(c2)OCCO3)cc1", "ratio change, negative = inhibition": "inconclusive: 6.13%"}, {"smiles": "CCN(CC)S(=O)(=O)c1ccc2oc(C(=O)NCc3ccc(C)cc3)c(C)c2c1", "Potency": "inconclusive: 14.1 µM [falling, single point]"}, {"smiles": "CC(C)(C)NC(=O)CSc1nnc(-c2ccncc2)o1", "ratio change, negative = inhibition": "inactive"}, {"smiles": "Cc1nn(-c2ccccc2)c(C)c1C(=O)OCC(=O)c1c(N)n(CC(C)C)c(=O)n(C)c1=O", "Potency": "inconclusive: 5.62 µM [fluorescent, full curve]"}, {"smiles": "COC/C=C/C1=CC2=CC(=O)C(C)(OC(=O)c3cnc4ccccc4n3)C(=O)C2=CN1c1ccccc1", "note": "(stereo not drawn)", "ratio change, negative = inhibition": "inactive: -8.64% [at 9.22 µM]"}, {"smiles": "COc1ccc(C(=O)Nc2ccc(-c3ccc(C)o3)cc2)cc1S(=O)(=O)N1CCOCC1", "Potency": "inconclusive: 2.24 µM [falling, single point]"}, {"smiles": "Cn1c(=O)n(C)c2cc(NS(=O)(=O)c3ccc(F)cc3)ccc21", "ratio change, negative = inhibition": "inconclusive: -29.1% [at 46 µM]"}, {"smiles": "O=C(NCCCN1CCCCCC1)c1ccc(CS(=O)(=O)Cc2ccccc2F)o1", "ratio change, negative = inhibition": "inactive"}, {"smiles": "O=C(c1ccccc1F)c1cc2c(cc1[N+](=O)[O-])OCCO2", "ratio change, negative = inhibition": "inactive"}, {"smiles": "Cc1ccccc1CS(=O)(=O)c1nnc([C@H](CC(C)C)NC(=O)OC(C)(C)C)o1", "Potency": "inconclusive: 35.5 µM [falling, single point]"}, {"smiles": "O=C(/C=C\\c1ccc2c(c1)OCO2)NC1CC(=O)N(c2ccc(Cl)cc2)C1", "note": "(stereo not drawn)", "ratio change, negative = inhibition": "inconclusive: 7.65% [at 46 µM]"}, {"smiles": "CC(C)(C)NC(=O)C(=O)NNC(=O)c1ccccc1", "ratio change, negative = inhibition": "inactive"}]}]}
